Assay results taken from article PMC9481931.
No constants are given. Whether binding was seen depends on the method and setting. In cells and extracts the contact can be indirect. Some binding calls cover weakened binding; strength is not graded here. Blank lines part the entries; values can stand above or below the molecule they belong to.

Chains of the proteins cited; added tags and fusions are not shown.
UniProt A1ZAW0: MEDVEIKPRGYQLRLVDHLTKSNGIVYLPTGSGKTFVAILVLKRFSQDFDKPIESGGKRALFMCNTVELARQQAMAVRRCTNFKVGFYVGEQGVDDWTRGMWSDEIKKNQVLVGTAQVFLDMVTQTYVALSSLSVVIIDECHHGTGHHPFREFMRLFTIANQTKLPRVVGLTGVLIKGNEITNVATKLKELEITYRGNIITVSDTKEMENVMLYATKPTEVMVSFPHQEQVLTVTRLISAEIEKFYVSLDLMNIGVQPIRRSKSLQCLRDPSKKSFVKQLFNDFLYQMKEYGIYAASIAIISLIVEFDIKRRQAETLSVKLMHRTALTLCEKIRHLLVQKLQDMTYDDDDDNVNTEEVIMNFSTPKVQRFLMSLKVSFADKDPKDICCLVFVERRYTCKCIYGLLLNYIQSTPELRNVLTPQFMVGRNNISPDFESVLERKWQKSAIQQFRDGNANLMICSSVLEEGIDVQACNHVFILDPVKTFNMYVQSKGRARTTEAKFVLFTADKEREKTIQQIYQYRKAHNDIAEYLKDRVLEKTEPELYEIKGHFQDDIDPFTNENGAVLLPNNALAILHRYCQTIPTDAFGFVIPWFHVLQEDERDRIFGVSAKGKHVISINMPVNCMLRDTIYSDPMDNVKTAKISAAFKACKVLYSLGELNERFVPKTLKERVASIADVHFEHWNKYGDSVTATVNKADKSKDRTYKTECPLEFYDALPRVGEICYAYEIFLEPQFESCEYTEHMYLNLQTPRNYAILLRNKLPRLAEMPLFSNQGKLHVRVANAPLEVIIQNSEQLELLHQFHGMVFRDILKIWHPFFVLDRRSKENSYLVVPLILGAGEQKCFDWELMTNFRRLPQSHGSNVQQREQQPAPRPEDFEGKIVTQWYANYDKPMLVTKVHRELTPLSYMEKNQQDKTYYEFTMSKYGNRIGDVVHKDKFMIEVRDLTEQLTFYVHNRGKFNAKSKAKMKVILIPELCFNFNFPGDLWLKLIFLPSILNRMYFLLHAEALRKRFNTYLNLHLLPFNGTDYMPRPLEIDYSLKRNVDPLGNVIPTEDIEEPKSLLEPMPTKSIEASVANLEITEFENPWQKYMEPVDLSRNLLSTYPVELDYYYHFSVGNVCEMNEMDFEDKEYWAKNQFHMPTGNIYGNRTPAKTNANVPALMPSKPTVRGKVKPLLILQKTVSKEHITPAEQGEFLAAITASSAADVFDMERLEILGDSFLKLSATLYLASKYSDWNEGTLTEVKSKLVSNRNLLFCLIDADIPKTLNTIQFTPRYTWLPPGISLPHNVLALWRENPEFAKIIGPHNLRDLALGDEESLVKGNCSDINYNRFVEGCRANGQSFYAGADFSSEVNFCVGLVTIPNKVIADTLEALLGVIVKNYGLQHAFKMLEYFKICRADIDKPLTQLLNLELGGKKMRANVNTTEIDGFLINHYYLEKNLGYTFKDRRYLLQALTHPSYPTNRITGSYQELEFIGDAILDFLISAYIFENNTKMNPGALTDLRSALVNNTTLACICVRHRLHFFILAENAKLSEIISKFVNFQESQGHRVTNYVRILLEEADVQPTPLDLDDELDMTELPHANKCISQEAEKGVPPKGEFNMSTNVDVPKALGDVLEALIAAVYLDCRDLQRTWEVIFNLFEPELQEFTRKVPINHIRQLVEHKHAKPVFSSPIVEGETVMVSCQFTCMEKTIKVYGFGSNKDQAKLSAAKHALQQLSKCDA

Key:
[1] = molecular target: T1, Ataxin-2 (Drosophila melanogaster (endogenous in embryo extracts)) (UniProt Q8SWR8); assay: co-IP; small-scale IP with 2 ul Atx2 serum on Protein-A Dynabeads, 700 ug embryo extract (wild type and Dicer-2 null), performed as in Fig 3D (RNases); Western blot; interactions with Wispy and Tyf fully preserved in Dicer-2 null extracts (Fig 3E)
T1 sequence: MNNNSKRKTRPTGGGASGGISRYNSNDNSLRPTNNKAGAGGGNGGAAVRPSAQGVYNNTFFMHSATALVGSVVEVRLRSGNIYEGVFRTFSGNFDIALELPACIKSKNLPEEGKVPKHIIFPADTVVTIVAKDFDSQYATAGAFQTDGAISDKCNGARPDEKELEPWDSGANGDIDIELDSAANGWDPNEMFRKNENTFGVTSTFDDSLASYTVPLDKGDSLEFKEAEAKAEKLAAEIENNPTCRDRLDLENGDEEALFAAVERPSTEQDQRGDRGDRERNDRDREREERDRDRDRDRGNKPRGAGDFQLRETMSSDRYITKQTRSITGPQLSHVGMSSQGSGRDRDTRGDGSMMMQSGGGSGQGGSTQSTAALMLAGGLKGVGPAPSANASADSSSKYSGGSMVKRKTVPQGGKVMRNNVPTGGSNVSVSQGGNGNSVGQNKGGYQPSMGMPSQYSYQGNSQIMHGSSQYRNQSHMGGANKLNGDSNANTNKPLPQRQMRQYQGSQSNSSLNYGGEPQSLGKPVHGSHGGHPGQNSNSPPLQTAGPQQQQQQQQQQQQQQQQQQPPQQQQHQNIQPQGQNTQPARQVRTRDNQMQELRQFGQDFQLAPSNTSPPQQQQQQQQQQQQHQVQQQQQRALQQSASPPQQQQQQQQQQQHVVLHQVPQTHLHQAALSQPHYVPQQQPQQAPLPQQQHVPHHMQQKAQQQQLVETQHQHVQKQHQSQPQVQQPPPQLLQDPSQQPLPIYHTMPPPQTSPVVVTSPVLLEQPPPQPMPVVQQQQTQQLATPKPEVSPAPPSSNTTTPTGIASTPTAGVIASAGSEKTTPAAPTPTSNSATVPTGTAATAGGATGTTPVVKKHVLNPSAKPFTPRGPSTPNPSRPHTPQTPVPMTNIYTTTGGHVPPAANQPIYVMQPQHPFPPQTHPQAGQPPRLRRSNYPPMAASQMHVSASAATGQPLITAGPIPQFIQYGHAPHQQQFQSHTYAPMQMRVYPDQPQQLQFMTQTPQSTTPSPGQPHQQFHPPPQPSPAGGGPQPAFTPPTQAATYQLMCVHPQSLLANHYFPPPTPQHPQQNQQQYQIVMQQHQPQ

[2] = molecular target: Dicer-2 (Drosophila melanogaster (endogenous in embryo extracts)) (UniProt A1ZAW0); assay: co-IP; small-scale IP, 5 ug affinity-purified anti-Dicer-2 antibody on Protein-A Dynabeads, 700 ug wild-type embryo extract, 25°C 1 h, washes in 1x NET (150 mM NaCl, 0.1% NP-40); with or without RNase I + RNase A; Western blot; IgG control (Fig 3B, 3D)

Molecule: Dicer-2 (from UniProt A1ZAW0 1-1722) (enzyme)
binding [1]: binds

binding [2]: binds
B1: Ataxin-2 (protein, UniProt Q8SWR8 1-1084)
chain: T1 sequence

B2: Wispy (enzyme, UniProt Q9VYS4 1-1373)
chain: MFSTRISGDMKIFAADVAESSVTATCNTSVQQQQSQQLEFRTRMSAGSPSSKSGQCHLKFGKYNNKTANLLRQVNSCHSSNSSSNTSNNNNEAIKGQQQQPLHYCNSNNSHSWARKKYFGNGNSNNSLLQQQQQPSSFFQRQQQQHQMQMQQEKQATNNNDALMKNQNVVNAHVSDCKSSDSNNNSTSSSNNNSTISSNNNNTSSASNNNTGSSSSCSNRTKPAKWLNENSSSSSSSNNNNISCRNNNTSSIDTKRRNSSAGATAAYYRKSESESGSSEGAAESTETEATRTGGCNSNRTAESSSADGGTQATMGKSQDQEQDQTVKQRPRQQPLSFWKTNYPQTSATQLKDKETVAAVVSAAAVAAAAAAASASEQQQQQQSLSIEHRRNSGYQQHQQHNYYPYYYSQPKQLTIASFLQKEMLPDSTEKSSSNTGGSNMIRSSSNGNSNFSRHQYGHQSTGSGYQQQQQRYRNAQNVYQQYQHQQQHHAQQHTHPHFRRKHSDNGSGINKKMHYSPPGKSGDPADRSASGQQQHHHPHQQQKTIEILASSHFNAMHRRMQGGNNKNGYYQHSYNPMTGEVGSTPTRSEHQNIYNLTYIHVDTEATGEAASAAGSTPVVKPSLLSKPNISITPASSTTPTTVDRALLPAVRSVSAPASGSALPAPANHVRNMFPPPPLAMLGGHGLLSPVTTTTPTKMISCAQLDEAITAAAASGDKLSTSPSYNQAGHYIMPPQQQQQQQLSSHPIPTGTSSHPPPPPPPHMFFHFADGFCNPGQGHQAPPATMWPHSSSPCYPASYGSSCGSGTGAGTSPHNNDGNAGALRPASPALSSSSLGSESQWSGTSNRSRLGHNGHPSISPTPSALGSAQLSPHLAEMRVQHPLHQQHPPSHASHRPHGQMGGHAMSSYVPHRPPPPPHPSISSPNPTPVATGAGGPWYEMILPPDRYLAQARNIEVTVQPEKLICMCKYDNLSAEIWKRFRGAQQTHNKFKLKMRLWRYLYLWMHQPMFERYRICLVGSTITGFGTDSSDIDMCLLPEQGVHPHQHQYHQHHHFHNEKRTEALIILTLFNAVLKDTEVFQDFNLIEARVPILRFKDISNGIEVDLNFNNCVGIKNTYLLQLYAQMDWRTRPLVVIVKLWAQYHDINDAKRMTISSYSLVLMVLHYLQHACVPHVLPCLHSLYPEKFQLGQQDCLDLDLIEPIEPYQALNTQTLGEHLLGFFKYYSTFDFRNFAISIRTGGVLPVSTCRMAKSPKNDVYQWKELNIEEPFDLSNTARSVYDGPTFERVKAVFLISARRLDHTLDLATIFRPIHHVPEHFPQLQQHQQQFEQQLHHPISGQQRSAGGGGDGANPVPSTLNPDAASTFAETTAAHVA
binding [1]: binds
